This experiment relates to Salmonella enterica serovar Typhimurium SL1344. The experiment is described as follows: bacterial growth OD600 after 18 h with compound and polymyxin B; higher = more bacterial growth (less inhibition). Conditions: 50 µM, Mueller-Hinton broth.

The other results are listed elsewhere or left out. These are raw signals, not scaled to a control.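 First-pass screen: polymyxin B was added at a level that permeabilizes the Salmonella outer membrane while sparing the inner membrane. DMSO wells, with and without polymyxin B, defined maximum growth. Because plates differed from one another, each plate's data were ranked separately and the compounds with the lowest OD600 were carried forward as hits.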

In the case of `COc1cc(CN2CCN(Cc3cnc(C)s3)CC2CCO)cc(OC)c1` (stereo unspecified), for the setting “polymyxin B 1 µg/mL”, the “bacterial growth OD600” value amounted to 0.95.

Regarding `CC(NC(=O)c1ccc(OC2CCN(C(=O)C3CC3)CC2)cc1)c1ccc(Cl)cc1` (stereo unspecified), for the setting “polymyxin B 1 µg/mL”, the “bacterial growth OD600” value amounted to 1.18.

In the case of `O=C(c1ccc(-c2ccccc2)cc1)C1CCCN(C(=O)CCC(F)(F)F)C1` (stereo unspecified), the “bacterial growth OD600” value (polymyxin B 1 µg/mL) was 0.859.

Turning to `Cc1nc(CNCc2cccnc2Oc2ccccc2)c[nH]1`, the “bacterial growth OD600” value (polymyxin B 1 µg/mL) was found to be 1.03.

With `COc1ccc(C(=O)N2CCN(C)C(=O)[C@@H]2C)cc1OC1CCN(C(C)=O)CC1`, the “bacterial growth OD600” value (polymyxin B 1 µg/mL) worked out at 0.885.

Regarding `CN(CCc1ccccn1)[C@@H]1CCN(C/C=C/c2ccccc2)C[C@H]1O`, the “bacterial growth OD600” value (polymyxin B 0.75 µg/mL) worked out at 0.806.

Regarding `COc1ccccc1CCC(=O)Nc1cnn(CC(=O)NCc2cc(F)cc(C(F)(F)F)c2)c1`, the “bacterial growth OD600” value (polymyxin B 0.75 µg/mL) was found to be 0.667.

For the molecule `COc1cc(CN2CCCC(C(=O)c3cc(C)c(OC)c(C)c3)C2)cc2c1OCO2` (stereo unspecified), the “bacterial growth OD600” value (polymyxin B 1 µg/mL) came out at 0.855.

`CN(C)CCN(CC1CCCN(Cc2ccccc2F)C1)C(=O)c1cc(C2CC2)on1` (stereo unspecified): the “bacterial growth OD600” value (polymyxin B 1 µg/mL) was 1.03.

On to `Cc1nc(N2CCCC(C(=O)N3CCCCCC3)C2)nc2cc(S(C)(=O)=O)ccc12` (stereo unspecified), for which the “bacterial growth OD600” value (polymyxin B 0.75 µg/mL) stood at 0.724.

For `CCn1cnnc1CN(C)c1ccc(-c2nc(C)no2)cn1`, the “bacterial growth OD600” value (polymyxin B 1 µg/mL) stood at 1.21.

In the case of `CN1CCC(N(C)C(=O)CC(c2cccc(O)c2)c2cccc(Cl)c2)CC1` (stereo unspecified), the “bacterial growth OD600” value (polymyxin B 0.75 µg/mL) was 0.71.

As to `CC(Cn1cncn1)Nc1ccc(-c2nc(Cc3ccccc3)no2)cn1` (stereo unspecified), the “bacterial growth OD600” value (polymyxin B 0.75 µg/mL) was 0.794.

With `COc1ccc(CC2=NOC(C(=O)NCCC3COc4ccccc4O3)C2)cc1` (stereo unspecified), the “bacterial growth OD600” value (polymyxin B 0.75 µg/mL) amounted to 0.79.

As to `C=CCNC(=O)c1coc(COc2ccc3ccc(OC)cc3c2)n1`, the “bacterial growth OD600” value (polymyxin B 1 µg/mL) worked out at 0.841.

On to `COCCN(C)C(=O)c1ccc(OC2CCN(C3CCCC3)CC2)c(OC)c1`, for which the “bacterial growth OD600” value (polymyxin B 0.75 µg/mL) is 0.797.

With `CCOC(=O)N1CCC(NC(=O)C2CC23CCN(C(=O)CCC(=O)c2ccc(F)cc2)CC3)CC1` (stereo unspecified), the “bacterial growth OD600” value (polymyxin B 0.75 µg/mL) was determined as 0.83.

As to `CCn1ccnc1CN1CCC(CCC(=O)Nc2cccc(OC)c2)CC1`, the “bacterial growth OD600” value (polymyxin B 1 µg/mL) is 1.18.

In the case of `COc1ccc(CN2CCC(CO)(CCCc3ccccc3)CC2)cc1OC`, where the note is “polymyxin B 1 µg/mL”, the “bacterial growth OD600” value stood at 0.769.

On to `Cn1ccnc1CN1CCOC(Cc2cccc(C(F)(F)F)c2)C1` (stereo unspecified), for which the “bacterial growth OD600” value (polymyxin B 0.75 µg/mL) came to 0.754.

Consider `O=C(NCCN1CCOCC1)c1ccc(N2CCC(NCc3cccc(C(F)(F)F)c3)CC2)cc1`, for which, under “polymyxin B 0.75 µg/mL”, the “bacterial growth OD600” value turned out to be 0.827.

Regarding `CCC(NC(=O)C1CC(=O)c2sc(NC(=O)c3c(F)cccc3Cl)nc2C1)c1cccs1` (stereo unspecified), the “bacterial growth OD600” value (polymyxin B 0.75 µg/mL) was 0.729.

Turning to `O=C(NCc1ccccc1)N1C[C@H]2OC(=O)N(CCc3ccc(F)cc3)[C@H]2C1`, the “bacterial growth OD600” value (polymyxin B 0.75 µg/mL) is 0.801.

`O=C1N(Cc2cccc(Cl)c2)C[C@@H]2C[C@@H](c3cccn3-c3nccs3)N3CCC[C@@]123`: the “bacterial growth OD600” value (polymyxin B 1 µg/mL) turned out to be 0.013.

For `CC1(CCC(=O)N2CCC(N3CCCC(C(=O)NC4CC4)C3)CC2)CC1` (stereo unspecified), the “bacterial growth OD600” value (polymyxin B 0.75 µg/mL) stood at 0.824.

Regarding `CC(C)OCCCNC(=O)c1ccc(OC2CCN(S(C)(=O)=O)CC2)c(Cl)c1`, the “bacterial growth OD600” value (polymyxin B 1 µg/mL) was 0.836.

On to `COc1ccc(NC2CCCN(C(C)=O)C2)cc1` (stereo unspecified), for which, under “polymyxin B 1 µg/mL”, the “bacterial growth OD600” value was 0.927.

Take `CO[C@H]1[C@H](NC(=O)c2cccs2)c2ccccc2C12CCN(CC#Cc1ccccc1)CC2`: the “bacterial growth OD600” value (polymyxin B 0.75 µg/mL) is 0.004.

Consider `CCN1CC(C(=O)NCc2cccnc2Oc2c(C)cccc2C)CCC1=O` (stereo unspecified), for which, where the note is “polymyxin B 0.75 µg/mL”, the “bacterial growth OD600” value was 0.86.

On to `O=C(Nc1ccc(Oc2ccccc2F)cc1)C1CCN(Cc2ccco2)CC1`, for which the “bacterial growth OD600” value (polymyxin B 1 µg/mL) turned out to be 0.81.

On to `CCn1nc(C)cc1C(=O)N1CCOc2ccc(CN3CCN(c4ccccc4)CC3)cc2C1`, for which the “bacterial growth OD600” value (polymyxin B 0.75 µg/mL) amounted to 0.862.

Source of the values: the supplement of paper PMC12889115.
